Assay results: PubChem BioAssay AID1487 (National Center for Advancing Translational Sciences (NCATS), 2009)
“And” between values parts separate entries of the source, which are not always exact repeats. Identical values can stand only once. Some of the results follow. The main result of the screen is listed elsewhere. These columns were measured beside it and carry no call. Most of these compounds were active or inconclusive in the main read-out, so they are no random draw. The note in brackets gives the kind of curve behind each potency; many fits are weak.

Experiment: qHTS Assay for Modulators of Lamin A Splicing
Settings: HeLa LMNA splicing GFP/RFP minigene ratio, 48 h
Summary of the method: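 Read-out is the ratio of GFP to DsRed2 object intensity, acquired by 488 nm laser-scanning cytometry on HeLa lamin A-EGFP minigene reporter cells. Compound incubation 48 hrs at 37 °C in Opti-MEM with 2% FBS; DMSO 0.5% final.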

[1] = measured here: RFP viability control channel
[2] = measured here: GFP splicing reporter channel

Structure (SMILES)	AC50 [1]	AC50 [2]
O=C(c1ccco1)c1cn(CC(=O)N2CCCCC2)c2ccccc12	28.2 µM [rising, single point]	–
CC(C)c1ccc(C2=C(O)c3ccccc3C(=O)C2=O)cc1	22.4 µM [rising, partial curve, poor fit]	–
Cc1ccc(N2C(=O)NC(NC(=O)c3ccc(Cl)cc3)(C(F)(F)F)C2=O)cc1 (stereo not given)	31.6 µM [rising, single point]	10 µM [rising, partial curve]
CCOCCCn1c(SCC(=O)Nc2cc(C(C)(C)C)nn2-c2ccccc2)nc2ccccc2c1=O	10 µM [rising, partial curve, poor fit]	–
C1CCCN(c2nc3nonc3nc2N2CCCCCC2)CC1	4.47 µM [rising, single point]	2.51 µM [rising, single point]
COc1ccccc1NS(=O)(=O)c1cc(NC(=O)c2cccs2)ccc1N1CCCCC1	12.6 µM [rising, partial curve]	10 µM [rising, partial curve, poor fit]
COc1ccc(Cn2c(-c3ccc(C)cc3)nc3c(c(=O)c4ccccc4n3C)c2=O)cc1	0.447 µM [rising, partial curve]	–
CN1CCCN=C1COC(=O)C(O)(c1ccccc1)C1CCCCC1 (stereo not given)	20 µM [falling, single point] and 3.55 µM [rising, single point]	1 µM [falling, single point]
COc1ccc(CC(=O)NCc2ccc3c(c2)CCN3C(=O)c2ccc(Cl)cc2)cc1OC	–	8.91 µM [falling, partial curve, poor fit]
COc1cccc(CNCC(O)(c2ccc(Cl)cc2)c2ccc(Cl)cc2)c1	35.5 µM [falling, single point]	22.4 µM [falling, single point]
Cc1cccc(C)c1NC(=O)C1(N(Cc2ccco2)C(=O)c2ccccn2)CCCC1	35.5 µM [rising, single point]	35.5 µM [rising, single point]
Cc1nc(SCC(=O)c2c(C)[nH]c3ccccc23)c2c(=O)n(C)c(=O)n(CC(C)C)c2n1	3.55 µM [rising, single point]	5.62 µM [rising, single point]
Cc1ccc(OCCN2C(=O)C(=O)c3cccc(C)c32)cc1	–	11.2 µM [falling, partial curve, poor fit]
COC(=O)NNC(=O)c1ccc(Cl)cc1Cl	–	31.6 µM [rising, single point]
COc1ccc(N(Cc2cccs2)C(=O)Nc2ccccc2)cc1	31.6 µM [rising, single point]	–
Cc1nc2cnc(OCc3ccccc3)nc2n(CCc2ccccc2)c1=O	35.5 µM [falling, partial curve, poor fit]	22.4 µM [falling, single point]
Fc1ccc(C(c2nnnn2Cc2ccccc2)N2CCSCC2)cc1 (stereo not given)	1 µM [rising, full curve, poor fit]	17.8 µM [rising, partial curve, poor fit]

Structure (SMILES)	AC50 [1]	AC50 [2]
[O-][n+]1ccccc1SSc1cccc[n+]1[O-]	0.112 µM [falling, full curve]	1.78 µM [falling, full curve]
CC(C)CNC(=O)CSc1nnc(-c2cccc(S(=O)(=O)N3CCCCC3)c2)o1	2.82 µM [rising, full curve, poor fit]	–
Cc1cnc(CNc2ncnc3ccc(-c4ccccc4C(F)(F)F)cc23)cn1	10 µM [falling, partial curve]	–
CC1c2ccccc2SC(CCCN(C)C)c2ccccc21 (stereo not given)	–	11.2 µM [rising, single point]
Cc1cc(Oc2ccc(C)c(Cl)c2)nc(SCC(=O)c2ccccc2)n1	35.5 µM [rising, single point]	–
Cc1ccc(CNS(=O)(=O)c2cc(C(=O)Nc3cccc(C(F)(F)F)c3)ccc2F)cc1	28.2 µM [falling, single point]	35.5 µM [falling, single point]
COCCNC(=S)N1CCN(Cc2cccc(OC)c2)CC1	0.355 µM [falling, full curve, poor fit]	0.447 µM [falling, full curve, poor fit]
O=C(CSc1n[nH]c(=O)[nH]c1=O)NC1CC1	8.91 µM [falling, full curve, poor fit]	–
CC(C)(Oc1ccc(Cl)cc1)C(=O)O	–	35.5 µM [falling, single point]
C/C(N)=C(/C#N)C(=O)CSc1nnnn1-c1ccc(C)cc1	35.5 µM [rising, single point]	35.5 µM [rising, single point]
Cc1nc2c(C(=O)NCCc3ccccc3)cnn2c(C)c1Cc1c(F)cccc1Cl	12.6 µM [falling, single point]	35.5 µM [falling, single point]
Cc1cccc(C(=O)N[C@H](C(=O)Nc2nnc(C3CC3)s2)C(C)C)c1	3.98 µM [rising, full curve]	–
O=C(CSc1nnc(-c2cccnc2)s1)Nc1ccnc2ccccc12	3.98 µM [rising, partial curve]	2 µM [rising, full curve, poor fit]
COc1cccc(/C=N/NC(=O)c2cc3c(OC)cccc3[nH]2)c1O	11.2 µM [rising, partial curve]	–
COc1ccc(NC(C)C(=O)N/N=C/c2ccccc2OCc2cccc(Br)c2)cc1 (stereo not given)	15.8 µM [rising, single point]	17.8 µM [rising, single point]
CCCCn1nnnc1SCC(=O)c1ccc(C)c(C)c1	1.26 µM [rising, partial curve, poor fit]	–
O=C(Nc1cccnc1)c1cccnc1	35.5 µM [rising, single point]	–
